System: endogenous LUBAC complex
Test: size exclusion chromatography (gel filtration) analysis of cell extracts
Set-up: species or system human

OTULIN: full-length OTULIN (aa 1–352), Met1-specific deubiquitinase
elution peaks of endogenous OTULIN (HEK293ET lysate prepared in absence of phosphatase inhibitors): two peaks at 600 and 40 kDa | elution size range of the majority of endogenous OTULIN (HEK293ET lysate, phosphatase inhibitors present): 100–150 kDa | fraction of endogenous OTULIN eluting at ∼100–150 kDa (HEK293ET lysate, phosphatase inhibitors present, Superdex 200): > 95%
